Some of the results follow.
How the values were obtained:
Test in all cases: log2 fold change, soluble protein after heating vs DMSO (PISA); higher = thermal stabilisation; K562 lysate, 10 uM; active = over 0.2 and 3.5 SD of the protein, either way, in both replicates (recomputed)
vemurafenib = compound: CCCS(=O)(=O)Nc1ccc(F)c(C(=O)c2c[nH]c3ncc(-c4ccc(Cl)cc4)cc23)c1F [vemurafenib]
Outline: (§1)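 Values give the log-two fold change in thermal stability against solvent controls, from duplicates. Crude K562 extract at 1 mg/mL protein, made by dounce homogenisation in PBS pH 7.4 with 1 mM MgCl2, was treated with 10 μM compound for 30 min. After 3 min heating across 48°C-58°C, aliquots were pooled, adjusted to 0.5% NP-40 at 4°C and centrifuged at 21,000xg for 90 min. The supernatant was measured by TMTpro 16plex LC-MS/MS with channel sums equalised.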

Sequences of proteins named here, by UniProt entry; tags and fusion partners are left off. A change or cut given only in a name is not applied to a line headed by its entry.
UniProt P04080: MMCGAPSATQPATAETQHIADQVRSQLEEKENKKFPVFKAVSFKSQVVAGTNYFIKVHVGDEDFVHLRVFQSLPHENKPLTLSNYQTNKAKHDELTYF
UniProt Q6UX04: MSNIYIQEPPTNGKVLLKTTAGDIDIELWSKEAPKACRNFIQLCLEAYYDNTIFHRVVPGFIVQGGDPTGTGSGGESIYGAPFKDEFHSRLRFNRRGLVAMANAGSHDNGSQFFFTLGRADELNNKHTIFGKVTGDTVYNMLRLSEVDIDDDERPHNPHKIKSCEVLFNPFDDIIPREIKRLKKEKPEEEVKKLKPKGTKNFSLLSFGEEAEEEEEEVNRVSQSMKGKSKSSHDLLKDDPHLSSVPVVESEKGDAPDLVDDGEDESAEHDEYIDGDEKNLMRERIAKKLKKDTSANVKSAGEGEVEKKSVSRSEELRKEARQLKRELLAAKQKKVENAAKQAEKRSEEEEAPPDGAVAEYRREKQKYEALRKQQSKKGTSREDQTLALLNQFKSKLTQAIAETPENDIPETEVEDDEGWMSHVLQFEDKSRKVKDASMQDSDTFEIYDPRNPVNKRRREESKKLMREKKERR
UniProt A4D126: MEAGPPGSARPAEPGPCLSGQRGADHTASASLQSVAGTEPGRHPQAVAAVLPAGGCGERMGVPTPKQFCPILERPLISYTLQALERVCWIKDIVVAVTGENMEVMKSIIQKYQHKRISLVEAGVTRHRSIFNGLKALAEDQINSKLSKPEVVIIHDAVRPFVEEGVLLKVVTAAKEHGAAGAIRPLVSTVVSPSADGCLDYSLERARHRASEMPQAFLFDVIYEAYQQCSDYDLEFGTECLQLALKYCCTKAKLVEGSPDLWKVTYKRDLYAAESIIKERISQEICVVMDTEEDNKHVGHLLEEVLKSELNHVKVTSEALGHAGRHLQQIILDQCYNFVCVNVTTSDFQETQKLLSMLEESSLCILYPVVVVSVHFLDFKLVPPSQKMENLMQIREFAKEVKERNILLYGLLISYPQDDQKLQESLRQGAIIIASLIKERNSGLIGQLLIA
UniProt P35221: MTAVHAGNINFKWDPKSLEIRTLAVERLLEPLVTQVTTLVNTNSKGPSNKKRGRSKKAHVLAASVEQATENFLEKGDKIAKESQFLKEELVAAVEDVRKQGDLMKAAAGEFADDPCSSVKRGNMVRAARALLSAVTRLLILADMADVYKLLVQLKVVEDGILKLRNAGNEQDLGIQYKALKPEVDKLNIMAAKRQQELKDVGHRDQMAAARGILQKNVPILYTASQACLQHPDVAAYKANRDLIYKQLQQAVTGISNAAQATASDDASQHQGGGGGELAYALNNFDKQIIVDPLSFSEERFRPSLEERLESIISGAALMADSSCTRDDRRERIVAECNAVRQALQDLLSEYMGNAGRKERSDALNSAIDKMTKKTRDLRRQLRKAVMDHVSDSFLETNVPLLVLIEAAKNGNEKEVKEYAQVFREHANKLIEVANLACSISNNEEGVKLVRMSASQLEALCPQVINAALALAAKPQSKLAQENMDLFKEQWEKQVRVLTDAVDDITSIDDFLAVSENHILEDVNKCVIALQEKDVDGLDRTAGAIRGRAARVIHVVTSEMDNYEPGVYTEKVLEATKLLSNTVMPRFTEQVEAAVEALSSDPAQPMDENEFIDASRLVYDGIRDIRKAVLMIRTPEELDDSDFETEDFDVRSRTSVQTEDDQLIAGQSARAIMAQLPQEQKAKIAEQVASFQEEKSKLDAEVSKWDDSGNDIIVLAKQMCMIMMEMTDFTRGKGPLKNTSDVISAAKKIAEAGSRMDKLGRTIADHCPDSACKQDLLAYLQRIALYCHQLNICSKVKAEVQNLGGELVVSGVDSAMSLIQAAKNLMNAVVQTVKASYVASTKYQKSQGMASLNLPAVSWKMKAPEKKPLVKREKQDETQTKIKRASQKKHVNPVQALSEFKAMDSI
UniProt P39880: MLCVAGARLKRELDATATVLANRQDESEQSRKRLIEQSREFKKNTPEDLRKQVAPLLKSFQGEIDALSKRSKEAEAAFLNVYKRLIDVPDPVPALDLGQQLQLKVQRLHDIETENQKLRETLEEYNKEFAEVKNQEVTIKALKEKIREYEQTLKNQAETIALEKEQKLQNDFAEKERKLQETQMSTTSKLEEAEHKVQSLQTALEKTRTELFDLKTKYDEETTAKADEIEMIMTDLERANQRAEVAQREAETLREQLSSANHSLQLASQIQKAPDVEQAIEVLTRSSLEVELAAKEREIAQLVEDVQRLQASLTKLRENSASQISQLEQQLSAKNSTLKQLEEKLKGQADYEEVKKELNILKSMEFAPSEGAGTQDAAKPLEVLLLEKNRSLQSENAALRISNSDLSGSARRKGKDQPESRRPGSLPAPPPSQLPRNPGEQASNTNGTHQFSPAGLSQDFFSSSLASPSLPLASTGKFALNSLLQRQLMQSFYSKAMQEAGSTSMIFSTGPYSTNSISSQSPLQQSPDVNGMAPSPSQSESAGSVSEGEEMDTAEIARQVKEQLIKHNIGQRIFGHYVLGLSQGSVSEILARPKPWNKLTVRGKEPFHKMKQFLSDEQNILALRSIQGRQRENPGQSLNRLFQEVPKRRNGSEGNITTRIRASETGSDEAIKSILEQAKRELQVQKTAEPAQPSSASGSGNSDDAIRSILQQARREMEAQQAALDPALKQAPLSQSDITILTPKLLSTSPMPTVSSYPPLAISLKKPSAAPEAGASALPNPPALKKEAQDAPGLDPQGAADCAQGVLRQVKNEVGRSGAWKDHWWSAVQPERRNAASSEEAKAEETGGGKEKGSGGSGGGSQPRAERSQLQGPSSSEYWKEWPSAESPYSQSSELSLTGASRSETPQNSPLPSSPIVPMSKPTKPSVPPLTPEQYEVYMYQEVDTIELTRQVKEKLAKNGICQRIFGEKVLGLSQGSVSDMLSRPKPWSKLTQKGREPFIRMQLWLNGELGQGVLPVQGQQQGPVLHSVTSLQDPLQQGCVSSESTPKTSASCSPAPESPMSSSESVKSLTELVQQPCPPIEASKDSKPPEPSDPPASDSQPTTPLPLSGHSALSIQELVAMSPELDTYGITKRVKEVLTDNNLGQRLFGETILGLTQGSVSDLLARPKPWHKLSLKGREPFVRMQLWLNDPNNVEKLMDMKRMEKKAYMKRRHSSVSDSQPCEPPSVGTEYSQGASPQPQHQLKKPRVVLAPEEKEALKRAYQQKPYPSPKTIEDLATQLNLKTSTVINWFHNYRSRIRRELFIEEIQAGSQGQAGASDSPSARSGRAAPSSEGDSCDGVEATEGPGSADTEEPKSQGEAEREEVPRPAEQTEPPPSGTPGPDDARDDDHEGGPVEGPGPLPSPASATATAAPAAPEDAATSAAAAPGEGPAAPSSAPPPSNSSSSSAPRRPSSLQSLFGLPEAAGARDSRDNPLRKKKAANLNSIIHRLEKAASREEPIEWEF
UniProt P07711: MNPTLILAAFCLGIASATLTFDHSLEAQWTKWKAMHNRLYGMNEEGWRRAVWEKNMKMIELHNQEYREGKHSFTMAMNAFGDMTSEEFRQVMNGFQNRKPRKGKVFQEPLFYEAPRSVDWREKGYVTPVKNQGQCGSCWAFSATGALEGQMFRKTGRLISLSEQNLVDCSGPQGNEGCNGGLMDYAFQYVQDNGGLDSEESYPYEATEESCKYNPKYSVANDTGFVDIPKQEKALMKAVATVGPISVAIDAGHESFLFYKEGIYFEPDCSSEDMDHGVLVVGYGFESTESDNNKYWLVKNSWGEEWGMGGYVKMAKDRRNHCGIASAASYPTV
UniProt Q6UW02: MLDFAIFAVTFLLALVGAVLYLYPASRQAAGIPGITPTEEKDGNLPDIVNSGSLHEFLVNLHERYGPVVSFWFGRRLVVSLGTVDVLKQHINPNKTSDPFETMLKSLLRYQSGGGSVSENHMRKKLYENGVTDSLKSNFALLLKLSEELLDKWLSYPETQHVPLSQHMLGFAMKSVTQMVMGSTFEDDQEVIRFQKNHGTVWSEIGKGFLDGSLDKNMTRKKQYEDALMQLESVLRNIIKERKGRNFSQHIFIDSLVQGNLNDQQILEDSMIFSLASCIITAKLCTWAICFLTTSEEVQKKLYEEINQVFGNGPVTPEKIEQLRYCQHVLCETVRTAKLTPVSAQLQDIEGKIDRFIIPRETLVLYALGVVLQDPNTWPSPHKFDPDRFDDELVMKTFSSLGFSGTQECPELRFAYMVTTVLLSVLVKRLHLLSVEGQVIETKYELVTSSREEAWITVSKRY
UniProt Q13616, whole entry, looked up: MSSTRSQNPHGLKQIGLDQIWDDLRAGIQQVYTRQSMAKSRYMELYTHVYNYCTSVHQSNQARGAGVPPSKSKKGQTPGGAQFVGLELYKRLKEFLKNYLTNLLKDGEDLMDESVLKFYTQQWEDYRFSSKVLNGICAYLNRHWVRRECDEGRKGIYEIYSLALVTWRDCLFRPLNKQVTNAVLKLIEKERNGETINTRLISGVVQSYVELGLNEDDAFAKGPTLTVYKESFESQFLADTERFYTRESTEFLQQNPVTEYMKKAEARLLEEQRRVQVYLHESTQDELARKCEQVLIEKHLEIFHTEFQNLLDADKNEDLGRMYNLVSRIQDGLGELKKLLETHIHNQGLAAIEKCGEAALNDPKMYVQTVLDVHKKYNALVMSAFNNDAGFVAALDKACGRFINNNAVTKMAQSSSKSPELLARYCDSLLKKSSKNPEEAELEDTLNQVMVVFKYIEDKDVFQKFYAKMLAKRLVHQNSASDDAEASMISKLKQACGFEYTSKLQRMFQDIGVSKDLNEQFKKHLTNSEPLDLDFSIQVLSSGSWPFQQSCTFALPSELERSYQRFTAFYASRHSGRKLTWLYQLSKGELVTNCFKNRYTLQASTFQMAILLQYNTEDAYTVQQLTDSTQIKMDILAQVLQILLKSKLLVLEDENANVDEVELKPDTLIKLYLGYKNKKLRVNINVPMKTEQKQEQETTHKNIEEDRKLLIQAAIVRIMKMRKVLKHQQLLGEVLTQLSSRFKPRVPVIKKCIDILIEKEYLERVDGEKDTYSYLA
UniProt Q13617, whole entry, looked up: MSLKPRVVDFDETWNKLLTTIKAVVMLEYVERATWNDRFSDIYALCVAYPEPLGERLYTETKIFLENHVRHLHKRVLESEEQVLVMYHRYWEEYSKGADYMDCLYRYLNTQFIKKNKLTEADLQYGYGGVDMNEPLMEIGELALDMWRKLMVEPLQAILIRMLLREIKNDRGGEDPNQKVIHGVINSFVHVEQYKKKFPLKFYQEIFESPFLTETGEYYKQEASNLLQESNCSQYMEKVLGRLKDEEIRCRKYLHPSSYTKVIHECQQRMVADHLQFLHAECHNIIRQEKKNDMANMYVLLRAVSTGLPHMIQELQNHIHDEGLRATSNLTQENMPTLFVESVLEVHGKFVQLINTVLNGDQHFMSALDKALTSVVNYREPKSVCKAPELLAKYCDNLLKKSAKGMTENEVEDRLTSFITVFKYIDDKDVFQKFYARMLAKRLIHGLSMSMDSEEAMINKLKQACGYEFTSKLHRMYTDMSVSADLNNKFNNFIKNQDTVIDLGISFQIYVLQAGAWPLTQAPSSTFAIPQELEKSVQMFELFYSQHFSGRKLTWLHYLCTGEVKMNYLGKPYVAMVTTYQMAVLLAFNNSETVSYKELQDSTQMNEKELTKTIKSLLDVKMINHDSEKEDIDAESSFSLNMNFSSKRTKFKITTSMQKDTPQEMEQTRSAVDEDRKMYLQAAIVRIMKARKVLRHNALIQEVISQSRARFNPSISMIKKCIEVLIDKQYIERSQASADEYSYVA
UniProt P17812: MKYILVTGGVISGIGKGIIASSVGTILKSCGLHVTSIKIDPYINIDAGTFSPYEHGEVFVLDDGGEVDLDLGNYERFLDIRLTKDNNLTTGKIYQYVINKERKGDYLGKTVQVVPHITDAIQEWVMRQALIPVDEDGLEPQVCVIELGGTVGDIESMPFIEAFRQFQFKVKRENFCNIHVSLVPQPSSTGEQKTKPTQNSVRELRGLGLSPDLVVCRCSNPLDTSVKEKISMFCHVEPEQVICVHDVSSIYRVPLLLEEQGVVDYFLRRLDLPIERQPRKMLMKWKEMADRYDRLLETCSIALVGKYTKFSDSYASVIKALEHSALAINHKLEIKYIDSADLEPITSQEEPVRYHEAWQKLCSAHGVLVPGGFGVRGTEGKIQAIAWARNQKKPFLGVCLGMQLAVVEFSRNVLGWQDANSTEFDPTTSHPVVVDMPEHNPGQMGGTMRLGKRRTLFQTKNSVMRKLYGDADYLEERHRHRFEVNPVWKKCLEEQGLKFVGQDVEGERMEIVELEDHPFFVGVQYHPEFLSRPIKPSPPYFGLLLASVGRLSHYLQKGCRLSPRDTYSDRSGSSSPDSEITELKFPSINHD

[1] = compound: CCCS(=O)(=O)Nc1ccc(F)c(C(=O)c2c[nH]c3ncc(Cl)cc23)c1F
Outline: as §1

barasertib = compound: CCN(CCCOc1ccc2c(Nc3cc(CC(=O)Nc4cccc(F)c4)[nH]n3)ncnc2c1)CCOP(=O)(O)O [barasertib]
Outline: as §1

[2] = compound: CC[C@@H]1C(=O)N(C)c2cnc(Nc3ccc(C(=O)NC4CCN(C)CC4)cc3OC)nc2N1C1CCCC1
Outline: as §1

volasertib = compound: CC[C@@H]1C(=O)N(C)c2cnc(Nc3ccc(C(=O)N[C@H]4CC[C@H](N5CCN(CC6CC6)CC5)CC4)cc3OC)nc2N1C(C)C [volasertib]
Outline: as §1

[3] = compound: CCn1c(C(=O)N(C2CC2)C2CC2)cc2c3c(ncn3C)c(Nc3cc(C)n(C)n3)nc21
Outline: as §1

[4] = compound: CCn1cc(-c2ccnc3[nH]c(-c4cccc(CN(C)C)c4)cc23)c(-c2ccc(NC(=O)N(C)C)cc2)n1
Outline: as §1

[5] = compound: CN1CCC(CNc2ccc3ncc(-c4cccc(OC(F)(F)F)c4)n3n2)CC1
Outline: as §1

saracatinib = compound: CN1CCN(CCOc2cc(OC3CCOCC3)c3c(Nc4c(Cl)ccc5c4OCO5)ncnc3c2)CC1 [saracatinib]
Outline: as §1

sotrastaurin = compound: CN1CCN(c2nc(C3=C(c4c[nH]c5ccccc45)C(=O)NC3=O)c3ccccc3n2)CC1 [sotrastaurin]
Outline: as §1

| Target | log2 fold change (vemurafenib) | log2 fold change [1] | log2 fold change (barasertib) | log2 fold change [2] | log2 fold change (volasertib) | log2 fold change [3] | log2 fold change [4] | log2 fold change [5] | log2 fold change (saracatinib) | log2 fold change (sotrastaurin) |
| --- | --- | --- | --- | --- | --- | --- | --- | --- | --- | --- |
| CSTB (UniProt P04080) | inactive: 0.007 | inactive: 0.001 | inactive: 0.077 | inactive: 0.043 | inactive: 0.044 | inactive: -0.027 | active: -0.376 | inactive: 0.174 | inactive: 0.013 | inactive: 0.086 |
| CWC27 (UniProt Q6UX04) | inactive: -0.012 | inactive: -0.003 | inactive: -0.013 | inactive: 0.03 | inactive: 0 | inactive: -0.01 | inactive: 0.005 | inactive: -0.021 | inactive: 0.003 | inactive: -0.02 |
| CSRP3 (UniProt P50461) | inactive: -0.028 | inactive: -0.006 | inactive: -0.05 | inactive: -0.003 | inactive: 0.049 | inactive: -0.063 | inactive: -0.048 | inactive: 0.198 | inactive: -0.058 | inactive: -0.266 |
| CRELD2 isoform 5 (UniProt Q6UXH1) | inactive: -0.054 | inactive: 0.019 | inactive: -0.175 | inactive: 0.081 | inactive: -0.022 | inactive: 0.038 | inactive: -0.017 | inactive: 0.03 | inactive: -0.009 | inactive: 0.015 |
| CRPPA (UniProt A4D126) | inactive: -0.026 | inactive: 0.012 | inactive: 0 | inactive: 0.025 | inactive: 0.03 | inactive: -0.001 | inactive: -0.038 | inactive: 0.035 | inactive: -0.013 | inactive: 0.041 |
| CTIF (UniProt O43310) | inactive: -0.1 |  |  |  |  |  |  |  |  |  |
| CREB3L2 (UniProt Q70SY1) | inactive: 0.081 | inactive: -0.05 | inactive: 0.065 | inactive: 0.068 | inactive: 0.014 | inactive: -0.094 | inactive: -0.224 | inactive: 0.182 | inactive: 0.057 |  |
| CXorf56 (UniProt Q9H5V9) | inactive: 0.006 | inactive: -0.004 | inactive: -0.04 | inactive: -0.008 | inactive: 0.009 | inactive: -0.033 | inactive: 0.031 | inactive: -0.013 | inactive: 0.008 | inactive: -0.008 |
| CYHR1 (UniProt E9PJD7) | inactive: -0.004 | inactive: 0.05 | inactive: 0.047 | inactive: 0.024 | inactive: -0.042 | inactive: 0.001 | inactive: -0.002 | inactive: 0.008 | inactive: -0.031 | inactive: 0.032 |
| CTNNA1 (UniProt P35221) | inactive: 0.004 | inactive: 0.006 | inactive: 0.01 | inactive: 0.004 | inactive: 0.021 | inactive: -0.034 | inactive: -0.024 | inactive: 0.039 | inactive: 0.002 | inactive: -0.009 |
| CRYZ (UniProt Q08257) | inactive: 0.001 | inactive: -0.016 | inactive: -0.01 | inactive: 0.045 | inactive: 0.038 | inactive: -0.023 | inactive: -0.086 | inactive: 0.048 | inactive: -0.001 | inactive: -0.008 |
| CRIPT (UniProt Q9P021) | inactive: -0.077 | inactive: -0.161 | inactive: -0.016 | inactive: 0.018 | inactive: 0.109 | inactive: -0.027 | inactive: -0.01 | inactive: -0.01 | inactive: 0.036 | inactive: -0.135 |
| CUX1 isoform 3 (UniProt P39880) | inactive: 0.059 | inactive: -0.012 | inactive: -0.011 | inactive: 0.028 | inactive: -0.004 | inactive: -0.006 | inactive: 0.107 | inactive: -0.152 | inactive: 0.018 | inactive: 0.029 |
| CSNK2A1 (UniProt P68400) | inactive: -0.124 | inactive: 0.017 | inactive: -0.025 | inactive: -0.057 | inactive: -0.039 | inactive: 0.006 | inactive: -0.009 | inactive: 0.165 | inactive: -0.028 | inactive: 0.019 |
| CTNNB1 (UniProt P35222) | inactive: -0.253 | inactive: -0.048 | inactive: 0.054 | inactive: 0.142 | inactive: 0.016 | inactive: -0.016 | inactive: -0.009 | inactive: 0.093 | inactive: -0.026 | inactive: 0.017 |
| CTSL (UniProt P07711) | inactive: -0.014 | inactive: 0.001 | inactive: -0.003 | inactive: 0.051 | inactive: 0.019 | inactive: -0.022 | inactive: -0.102 | inactive: 0.022 | inactive: -0.049 | inactive: -0.049 |
| CRK (UniProt P46108) | inactive: -0.017 | inactive: -0.014 | inactive: -0.033 | inactive: 0.02 | inactive: 0.006 | inactive: 0.004 | inactive: 0.111 | inactive: 0.036 | inactive: -0.012 | inactive: 0.001 |
| CYP20A1 (UniProt Q6UW02) | inactive: -0.005 | inactive: 0 | inactive: 0.047 | inactive: -0.075 | inactive: -0.04 | inactive: -0.018 | inactive: -0.04 | inactive: 0.006 | inactive: 0.012 | inactive: -0.004 |
| CRELD1 isoform 2 (UniProt Q96HD1) | inactive: 0.194 | inactive: -0.028 | inactive: -0.087 | inactive: -0.13 | inactive: 0.051 | inactive: 0.002 | inactive: 0.05 | inactive: 0.033 | inactive: -0.157 |  |
| CWF19L1 (UniProt Q69YN2) | inactive: 0.027 | inactive: 0.025 | inactive: -0.052 | inactive: 0.006 | inactive: -0.016 | inactive: 0.014 | inactive: 0.06 | inactive: -0.029 | inactive: 0.01 | inactive: -0.005 |
| CUL1 (UniProt Q13616) | inactive: -0.008 | inactive: 0.001 | inactive: -0.011 | inactive: 0.034 | inactive: 0.029 | inactive: 0.004 | inactive: -0.013 | inactive: 0.029 | inactive: -0.023 | inactive: -0.029 |
| CTNNBL1 (UniProt Q8WYA6) | inactive: 0.004 | inactive: 0.016 | inactive: 0.005 | inactive: -0.042 | inactive: -0.041 | inactive: -0.16 | inactive: -0.013 | inactive: -0.091 | inactive: 0.023 | inactive: 0.015 |
| CREG1 (UniProt O75629) | inactive: -0.022 | inactive: 0.004 | inactive: 0.037 | inactive: 0.055 | inactive: 0.041 | inactive: -0.032 | inactive: 0.006 | inactive: 0.046 | inactive: 0 | inactive: -0.02 |
| CRBN (UniProt Q96SW2) | inactive: -0.026 | inactive: 0 | inactive: 0.081 | inactive: 0.045 | inactive: -0.034 | inactive: -0.03 | inactive: -0.075 | inactive: 0.073 | inactive: 0.026 | inactive: 0.013 |
| CRKL (UniProt P46109) | inactive: 0.005 | inactive: -0.015 | inactive: -0.042 | inactive: 0.05 | inactive: 0.031 | inactive: -0.03 | inactive: 0.014 | inactive: 0.084 | inactive: 0.014 | inactive: 0.012 |
| CUL2 isoform 2 (UniProt Q13617) | inactive: 0.009 | inactive: 0.003 | inactive: 0.02 | inactive: -0.023 | inactive: -0.022 | inactive: 0.011 | inactive: 0.03 | inactive: 0.011 | inactive: 0.001 | inactive: -0.008 |
| CTPS1 (UniProt P17812) | inactive: -0.008 | inactive: 0.016 | inactive: -0.024 | inactive: -0.065 | inactive: -0.04 | inactive: 0.026 | inactive: -0.041 | inactive: -0.011 | inactive: 0.007 | inactive: 0.021 |
| CXorf38 (UniProt Q8TB03) | inactive: 0.017 | inactive: -0.015 | inactive: -0.024 | inactive: 0.038 | inactive: 0.013 | inactive: -0.027 | inactive: -0.059 | inactive: 0.04 | inactive: 0.105 | inactive: 0.018 |

Nothing new here: an excerpt of the list.

| Target | log2 fold change (vemurafenib) | log2 fold change [1] | log2 fold change (barasertib) | log2 fold change [2] | log2 fold change (volasertib) | log2 fold change [3] | log2 fold change [4] | log2 fold change [5] | log2 fold change (saracatinib) | log2 fold change (sotrastaurin) |
| --- | --- | --- | --- | --- | --- | --- | --- | --- | --- | --- |
| CTNNBL1 (UniProt Q8WYA6) | inactive: 0.004 | inactive: 0.016 | inactive: 0.005 | inactive: -0.042 | inactive: -0.041 | inactive: -0.16 | inactive: -0.013 | inactive: -0.091 | inactive: 0.023 | inactive: 0.015 |
| CREG1 (UniProt O75629) | inactive: -0.022 | inactive: 0.004 | inactive: 0.037 | inactive: 0.055 | inactive: 0.041 | inactive: -0.032 | inactive: 0.006 | inactive: 0.046 | inactive: 0 | inactive: -0.02 |
| CRBN (UniProt Q96SW2) | inactive: -0.026 | inactive: 0 | inactive: 0.081 | inactive: 0.045 | inactive: -0.034 | inactive: -0.03 | inactive: -0.075 | inactive: 0.073 | inactive: 0.026 | inactive: 0.013 |
| CRKL (UniProt P46109) | inactive: 0.005 | inactive: -0.015 | inactive: -0.042 | inactive: 0.05 | inactive: 0.031 | inactive: -0.03 | inactive: 0.014 | inactive: 0.084 | inactive: 0.014 | inactive: 0.012 |
| CUL2 isoform 2 (UniProt Q13617) | inactive: 0.009 | inactive: 0.003 | inactive: 0.02 | inactive: -0.023 | inactive: -0.022 | inactive: 0.011 | inactive: 0.03 | inactive: 0.011 | inactive: 0.001 | inactive: -0.008 |

Source: the supplement of paper PMC10849652
